These are yes or no findings as the source states them, for the method shown. Binding seen in cells or lysates may run through a third protein. Some binding calls cover weakened binding; strength is not graded here. For some of these results: Where a sequence is shown, tags or fusion partners need not be part of it.

Sequences of proteins named here, by UniProt entry; tags and fusion partners are left off.
UniProt P20823: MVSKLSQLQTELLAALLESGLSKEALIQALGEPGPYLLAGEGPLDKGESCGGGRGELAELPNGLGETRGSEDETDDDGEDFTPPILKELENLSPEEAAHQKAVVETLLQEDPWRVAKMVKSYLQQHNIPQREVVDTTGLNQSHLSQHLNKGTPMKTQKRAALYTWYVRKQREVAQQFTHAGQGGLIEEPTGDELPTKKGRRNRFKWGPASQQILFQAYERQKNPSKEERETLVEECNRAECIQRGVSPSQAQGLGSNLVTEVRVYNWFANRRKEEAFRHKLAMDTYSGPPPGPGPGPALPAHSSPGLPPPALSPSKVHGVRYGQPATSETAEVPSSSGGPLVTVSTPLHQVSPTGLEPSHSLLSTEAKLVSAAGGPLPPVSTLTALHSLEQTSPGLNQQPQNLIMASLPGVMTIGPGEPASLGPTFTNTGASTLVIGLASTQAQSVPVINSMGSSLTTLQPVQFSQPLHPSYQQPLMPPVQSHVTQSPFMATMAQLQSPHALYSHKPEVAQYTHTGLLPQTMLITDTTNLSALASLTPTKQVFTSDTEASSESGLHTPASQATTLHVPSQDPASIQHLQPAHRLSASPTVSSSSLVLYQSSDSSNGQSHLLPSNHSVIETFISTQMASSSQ

Experiment [1] addresses T1, Flag-TRIM8 (Tripartite motif 8) (UniProt Q9BZR9).
T1 sequence: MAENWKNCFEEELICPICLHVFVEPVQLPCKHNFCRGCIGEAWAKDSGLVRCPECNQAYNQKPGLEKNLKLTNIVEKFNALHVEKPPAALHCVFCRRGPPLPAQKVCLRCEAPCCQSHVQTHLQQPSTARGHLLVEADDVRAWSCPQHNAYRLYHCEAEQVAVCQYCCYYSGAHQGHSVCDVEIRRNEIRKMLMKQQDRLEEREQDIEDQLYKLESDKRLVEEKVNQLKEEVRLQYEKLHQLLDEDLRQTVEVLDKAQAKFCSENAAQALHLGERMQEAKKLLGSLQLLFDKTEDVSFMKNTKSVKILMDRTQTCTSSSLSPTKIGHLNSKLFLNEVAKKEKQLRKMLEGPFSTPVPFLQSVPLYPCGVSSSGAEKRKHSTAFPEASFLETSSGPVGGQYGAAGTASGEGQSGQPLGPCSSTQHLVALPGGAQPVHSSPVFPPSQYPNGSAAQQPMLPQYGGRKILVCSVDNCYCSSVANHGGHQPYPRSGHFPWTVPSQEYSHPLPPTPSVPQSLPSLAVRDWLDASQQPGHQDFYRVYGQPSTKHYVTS
Put plainly: co-IP; deletion mutants of TRIM8 tested with HNF1α; cells, tags and precipitated partner not told in the text (Supplementary Fig. S5A, B).

Experiment [2] addresses T1, Flag-TRIM8 (Tripartite motif 8). Put plainly: co-IP; HEK293T cells transfected with Flag-TRIM8 and V5-HNF1α; IP lysis buffer; anti-Flag or anti-V5 affinity gel overnight at 4 °C; wash buffer 20 mM Tris-HCl pH 7.4, 100 mM NaCl, 0.5% NP40, 0.5% Triton-X100, 10% glycerol.
Experiment [3] concerns the target T2, endogenous TRIM8 (Tripartite motif 8) (human (endogenous in Huh7)) (UniProt Q9BZR9).
T2 sequence: T1 sequence
Put plainly: proximity ligation; in situ proximity ligation assay in Huh7 cells.

In experiment [4] the target is T2, endogenous TRIM8 (Tripartite motif 8) (human (endogenous in Huh7)). Put plainly: co-IP; endogenous proteins in Huh7 lysate; TRIM8 antibody (sc-398878) or IgG overnight at 4 °C, protein G agarose.

For “V5-HNF1α (Hepatocyte nuclear factor 1α) (from UniProt P20823 1-631)”, the binding entry in experiment [1] and in experiment [2] was “binds” throughout.
Regarding “endogenous HNF1α (Hepatocyte nuclear factor 1α) (from UniProt P20823 1-631)”, the binding result in experiment [3] and in experiment [4] was “binds” in each case.

The record behind these values is article PMC11180176.
